Assay results taken from US8273701B2, “Method for diagnosing non-small cell lung carcinoma” (Trustees of Dartmouth College, priority 2005, dated 2012).
At least one read-out could not be matched to a standard name with certainty.

Tested on: Hedgehog signaling (Gli-luciferase reporter construct, Shh-Light2 cells)
Assay: Gli-luciferase reporter assay in Shh-Light2 cells
Format: cell-based
Details: 24 hour co-treatment with Shh-conditioned media, normalized to Renilla, controls = DMSO and conditioned media

With `C[C@H]1CC[C@]2(NC1)O[C@H]1C[C@H]3[C@@H]4CC[C@H]5C[C@@H](O)CC[C@]5(C)[C@H]4CC[C@]3(C)[C@H]1[C@@H]2C` [Tomatidine, tomatidine] the “Luciferase activity as percentage of controls” value (Concentration (M) −6) was 98 percentage of controls, the “Luciferase activity as percentage of controls” value (Concentration (M) −7) was 88 percentage of controls and the “Luciferase activity as percentage of controls” value (Concentration (M) −8) was 98 percentage of controls. For the same molecule, the “Luciferase activity as percentage of controls” value (Concentration (M) −9) was 93 percentage of controls.
